# Measurements as given in article PMC7819943, “Rice protein-binding microarrays: a tool to detect cis-acting elements near promoter regions in rice”.
# By UniProt entry, the sequences of proteins in these tests, tags left out.
# UniProt Q0JBA9, entry or part of it: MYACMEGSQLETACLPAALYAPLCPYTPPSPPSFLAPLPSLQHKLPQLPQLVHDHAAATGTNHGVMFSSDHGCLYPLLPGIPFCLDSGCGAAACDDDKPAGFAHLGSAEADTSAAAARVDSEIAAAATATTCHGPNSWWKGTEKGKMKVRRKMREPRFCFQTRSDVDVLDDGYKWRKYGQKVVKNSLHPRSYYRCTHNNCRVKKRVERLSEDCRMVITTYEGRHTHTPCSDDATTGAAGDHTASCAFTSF
# Some of the results follow.
# Biological target: OsWRKY34 (Oryza sativa, UniProt Q0JBA9 1-250)
# Assay: protein-binding microarray (RPBM); PBS, 2% BSA, 51.3 ng/ul salmon testes DNA, 50 uM zinc acetate, 200 nM TF, 25 C, 1 h; high values mean tight binding
# Conditions: protein: recombinant; tags: N-terminal polyhistidine and DsRed monomer fusion (pET32a); label: CyDye5-dUTP incorporated in the synthesized complementary strand; 3' TTTTT single-stranded linker to array surface; dsDNA, one strand shown
# How it was run: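 The binding signal for each feature is its fluorescence intensity in arbitrary units. An Axon 4000B scanner was used to read a custom Agilent array that had been made double-stranded with Cy5-dUTP primer extension, blocked with 2% BSA, incubated at 25 °C for 1 h with 200 nM protein in PBS, 2% BSA, salmon testes DNA and 50 µM zinc acetate, and washed. The protein was an N-terminal polyhistidine–DsRed transcription factor fusion from E. coli BL21-CodonPlus, purified on Ni–NTA.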
row,Sequence,binding signal
1,CCGCGCCACCGCCGTCGCCGCCGCCCTCGACTGCCGCCGCCGGAGTCACCTAGTGCAG,10500 fluorescence intensity (a.u.)
2,CTCCTGTCTTCCGGCTAAAGTTCGGCACAACATGTTCCAGCGGAGTCACCTAGTGCAG,8380 fluorescence intensity (a.u.)
3,AATACTACCTCCGTTTTAAAATGTTTGACGCCGTTGATATCGGAGTCACCTAGTGCAG,8440 fluorescence intensity (a.u.)
4,TCCTTCGTCTCGACTCCAGTTGGGGAGGCATTCTTTTCTTCGGAGTCACCTAGTGCAG,9420 fluorescence intensity (a.u.)
5,TCGTGAGAGTGTTATACAGGTGTGTTTGCTCGTATTTCTACGGAGTCACCTAGTGCAG,8060 fluorescence intensity (a.u.)
6,ACCATCCTGCTGCAACTGGCACTTTCTTCACTGCAATGCTCGGAGTCACCTAGTGCAG,9970 fluorescence intensity (a.u.)
7,GTCGGTCCAGAATTTTTGATGTGCACGCTTATGTGCGCGCCGGAGTCACCTAGTGCAG,8170 fluorescence intensity (a.u.)
8,CTCCATTTAACAGATGACGTCGTTGACTTTTTCTTACATGCGGAGTCACCTAGTGCAG,26900 fluorescence intensity (a.u.)
9,TTGATGACCTGTATTCTCATGATTCACTTTCAAGTTCAGTCGGAGTCACCTAGTGCAG,8240 fluorescence intensity (a.u.)
10,CGTGGCTTCTCATCTTCTGCCTCCACTTCTCCGTCTTCGACGGAGTCACCTAGTGCAG,11100 fluorescence intensity (a.u.)
11,GCAGTTTTGCACTGTTCATATCCAACATTTGACCATTCATCGGAGTCACCTAGTGCAG,8770 fluorescence intensity (a.u.)
12,CCTCTACTGGGTTGGCGGGGAGTGGATCGGGGATCTGCACCGGAGTCACCTAGTGCAG,10700 fluorescence intensity (a.u.)
13,TTATATTCACAATCACTTTTTCTTTTGTCACATCTTTATACGGAGTCACCTAGTGCAG,10200 fluorescence intensity (a.u.)
14,CTCCGCTCGCCAGCCTATCCACCTTGCGTCGCTGCTCACGCGGAGTCACCTAGTGCAG,9010 fluorescence intensity (a.u.)
15,TTGGCGGTGGTGGCGACTTAATTCCGCGTGGCGCGACGGCCGGAGTCACCTAGTGCAG,9260 fluorescence intensity (a.u.)
16,CTCGTTCCGTTGTCTCAGCGCGTTTGACCAGCGATCTACTCGGAGTCACCTAGTGCAG,12200 fluorescence intensity (a.u.)
17,CCCCAACAAGTGCCTCGTCGCCTGCGCCTACTGCCTCACCCGGAGTCACCTAGTGCAG,8560 fluorescence intensity (a.u.)
18,ATATCGTTCGGATGTTTTTACTCTTTTTTTTTCGATTTGTCGGAGTCACCTAGTGCAG,10100 fluorescence intensity (a.u.)
19,GCGTTACATACATCCTTATTATGTTGTTCATGTTTATAAACGGAGTCACCTAGTGCAG,8240 fluorescence intensity (a.u.)
20,ATCTTAATTTACCTTTCACTGCATCTAATATGTCACTTTGCGGAGTCACCTAGTGCAG,8630 fluorescence intensity (a.u.)
21,CCCATCGGTTTATGCAGCATCGCGCTTCTGCCGCTGCCCGCGGAGTCACCTAGTGCAG,9160 fluorescence intensity (a.u.)

row,Sequence,binding signal
1,GATGTGGTATTAATATATGGTTGATTAAGTTTTAATTATTCGGAGTCACCTAGTGCAG,8460 fluorescence intensity (a.u.)
2,GACCGGCGAAACCGACGCGAACCTGCCGTTATCCCACAACCGGAGTCACCTAGTGCAG,11900 fluorescence intensity (a.u.)
3,TATAAATCTGTAACCCGTTGTCCTTCTCTTTCCTTATTTACGGAGTCACCTAGTGCAG,8680 fluorescence intensity (a.u.)
4,ACATCCTATCCCGTGCATTGAATCAGCATTGTACAGCAAACGGAGTCACCTAGTGCAG,8950 fluorescence intensity (a.u.)
5,CGCCGACTTCGCGACGCCACGCTGTCTTTGACCGGCTCCGCGGAGTCACCTAGTGCAG,8040 fluorescence intensity (a.u.)
6,AGAACACGCCACCTTCCGCATCGTCGGCAGCCGCCTCCTCCGGAGTCACCTAGTGCAG,9320 fluorescence intensity (a.u.)
7,TTTCTTTAGGTCAGTTTTGGTTATTTCTCAGTCAGATCATCGGAGTCACCTAGTGCAG,12100 fluorescence intensity (a.u.)
8,AAAAAATAACACACACCCTTAGGCCATTCGATTTTATTTTCGGAGTCACCTAGTGCAG,11100 fluorescence intensity (a.u.)
9,GATCTCAGCTGTCTAAGCTTCATTTCAGGTATCAACACTTCGGAGTCACCTAGTGCAG,12100 fluorescence intensity (a.u.)
10,ACCATGTTTGGTCCTTAGTACTTACTACCTCCGTATTTTACGGAGTCACCTAGTGCAG,8810 fluorescence intensity (a.u.)
11,ACTGCTCGCCATTGGTCTGACCATCGTCTTGCCACCGGACCGGAGTCACCTAGTGCAG,10100 fluorescence intensity (a.u.)
12,ATGCGTGCTGCCGACTGCCGAGTGTCACCGAATCCTTAATCGGAGTCACCTAGTGCAG,8280 fluorescence intensity (a.u.)
13,GCCCACTAAAACAATCCGGCCAGTTAACACTTCACACCCCCGGAGTCACCTAGTGCAG,8730 fluorescence intensity (a.u.)
14,TGGTCACCTGGGAAGGTCGCTGTCTCTGCCTTTTGTTTTCCGGAGTCACCTAGTGCAG,13300 fluorescence intensity (a.u.)
15,AAAATTTCTGCTTCAAATTTCCCATCCTGTCCTTAAGCCGCGGAGTCACCTAGTGCAG,8040 fluorescence intensity (a.u.)
16,GCCATCGTCCTTATCTGCATCAGTAAAGTCAATGGCCATCCGGAGTCACCTAGTGCAG,10300 fluorescence intensity (a.u.)
17,TTCTCCACCCACCTCCTCATCTAAACAATCACAACAATTTCGGAGTCACCTAGTGCAG,8370 fluorescence intensity (a.u.)
18,CCATTCTCGTTTTCCACGGCTCAACCGCTCTCTTCGCTCGCGGAGTCACCTAGTGCAG,9330 fluorescence intensity (a.u.)
19,CATGCCAGGTGTTGGGCCTCATCGTCGGCCGCTTAGTATCCGGAGTCACCTAGTGCAG,8380 fluorescence intensity (a.u.)
20,TCTTTTTGGTAGGTACTTTGGCTGCGTTCCGCCGTACGTTCGGAGTCACCTAGTGCAG,9510 fluorescence intensity (a.u.)
21,ACGCACCTGCACATTTGGAACTTGTACTACACGTGTTTCACGGAGTCACCTAGTGCAG,8320 fluorescence intensity (a.u.)

# A second format for some results above:
row | Sequence | binding signal
4 | ACATCCTATCCCGTGCATTGAATCAGCATTGTACAGCAAACGGAGTCACCTAGTGCAG | 8950 fluorescence intensity (a.u.)
5 | CGCCGACTTCGCGACGCCACGCTGTCTTTGACCGGCTCCGCGGAGTCACCTAGTGCAG | 8040 fluorescence intensity (a.u.)
6 | AGAACACGCCACCTTCCGCATCGTCGGCAGCCGCCTCCTCCGGAGTCACCTAGTGCAG | 9320 fluorescence intensity (a.u.)
7 | TTTCTTTAGGTCAGTTTTGGTTATTTCTCAGTCAGATCATCGGAGTCACCTAGTGCAG | 12100 fluorescence intensity (a.u.)
8 | AAAAAATAACACACACCCTTAGGCCATTCGATTTTATTTTCGGAGTCACCTAGTGCAG | 11100 fluorescence intensity (a.u.)
9 | GATCTCAGCTGTCTAAGCTTCATTTCAGGTATCAACACTTCGGAGTCACCTAGTGCAG | 12100 fluorescence intensity (a.u.)
10 | ACCATGTTTGGTCCTTAGTACTTACTACCTCCGTATTTTACGGAGTCACCTAGTGCAG | 8810 fluorescence intensity (a.u.)
11 | ACTGCTCGCCATTGGTCTGACCATCGTCTTGCCACCGGACCGGAGTCACCTAGTGCAG | 10100 fluorescence intensity (a.u.)
12 | ATGCGTGCTGCCGACTGCCGAGTGTCACCGAATCCTTAATCGGAGTCACCTAGTGCAG | 8280 fluorescence intensity (a.u.)
